Reference: the supplement of paper PMC8612539
Converted amounts (≈) assume the structure as drawn. This continues a long series; more values of the same kind are listed elsewhere.

Tested on: Pasteurella multocida
Experiment: minimum inhibitory concentration (MIC)
Protocol: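 Broth microdilution MIC (Sensititre BOPO7F bovine plate, CLSI methods) of 19 antimicrobials against field isolates of P. multocida, M. haemolytica, H. somni (deep nasopharyngeal swabs) and E. coli, Enterococcus spp. (rectal swabs) from weaned dairy heifers. Incubation 16-24 h at 35 C. MIC is the lowest concentration preventing visible growth. Values with <= or > lie at the tested range limits. Trimethoprim-sulfamethoxazole is given as the trimethoprim component of a 1:19 mixture.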

CC1(C)S[C@@H]2[C@H](NC(=O)Cc3ccccc3)C(=O)N2[C@H]1C(=O)O [Penicillin]
Conditions | minimum inhibitory concentration [µg/mL]
isolate (source animal id): 30 | ≤ 0.12
isolate (source animal id): 34 | ≤ 0.12
isolate (source animal id): 36 | ≤ 0.12
isolate (source animal id): 37 | 0.25 (≈ 0.748 µM)
isolate (source animal id): 46 | ≤ 0.12
isolate (source animal id): 48 | ≤ 0.12
isolate (source animal id): 49 | 0.25 (≈ 0.748 µM)
isolate (source animal id): 54 | 0.25 (≈ 0.748 µM)
isolate (source animal id): 55 | ≤ 0.12
isolate (source animal id): 58 | 0.25 (≈ 0.748 µM)
isolate (source animal id): 60 | 0.25 (≈ 0.748 µM)
isolate (source animal id): 61 | > 8
isolate (source animal id): 63 | 0.25 (≈ 0.748 µM)
isolate (source animal id): 64 | 0.25 (≈ 0.748 µM)
isolate (source animal id): 65 | > 8
isolate (source animal id): 66 | 0.25 (≈ 0.748 µM)
isolate (source animal id): 67 | 0.25 (≈ 0.748 µM)
isolate (source animal id): 69 | ≤ 0.12
isolate (source animal id): 73 | 0.25 (≈ 0.748 µM)
isolate (source animal id): 75 | 0.25 (≈ 0.748 µM)
isolate (source animal id): 76 | ≤ 0.12
isolate (source animal id): 77 | ≤ 0.12
isolate (source animal id): 78 | ≤ 0.12
isolate (source animal id): 80 | ≤ 0.12
isolate (source animal id): 82 | 0.25 (≈ 0.748 µM)
isolate (source animal id): 83 | ≤ 0.12
isolate (source animal id): 88 | ≤ 0.12
isolate (source animal id): 92 | ≤ 0.12
isolate (source animal id): 94 | ≤ 0.12
isolate (source animal id): 318 | 0.25 (≈ 0.748 µM)
isolate (source animal id): 319 | 0.25 (≈ 0.748 µM)
isolate (source animal id): 320 | 0.25 (≈ 0.748 µM)
isolate (source animal id): 321 | 0.25 (≈ 0.748 µM)
isolate (source animal id): 322 | ≤ 0.12
isolate (source animal id): 324 | 0.25 (≈ 0.748 µM)
isolate (source animal id): 325 | ≤ 0.12
isolate (source animal id): 328 | ≤ 0.12
isolate (source animal id): 330 | 0.25 (≈ 0.748 µM)
isolate (source animal id): 331 | ≤ 0.12
isolate (source animal id): 333 | 0.25 (≈ 0.748 µM)
isolate (source animal id): 336 | ≤ 0.12
isolate (source animal id): 337 | ≤ 0.12
isolate (source animal id): 339 | 0.25 (≈ 0.748 µM)
isolate (source animal id): 340 | 0.25 (≈ 0.748 µM)
isolate (source animal id): 341 | 0.25 (≈ 0.748 µM)

CN[C@@H]1[C@H](O)[C@H](NC)[C@H]2O[C@@]3(O)C(=O)C[C@@H](C)O[C@H]3O[C@@H]2[C@H]1O [Spectinomycin]
Conditions | minimum inhibitory concentration [µg/mL]
isolate (source animal id): 30 | 32 (≈ 96.3 µM)
isolate (source animal id): 34 | 16 (≈ 48.1 µM)
isolate (source animal id): 36 | 32 (≈ 96.3 µM)
isolate (source animal id): 37 | 32 (≈ 96.3 µM)
isolate (source animal id): 46 | 16 (≈ 48.1 µM)
isolate (source animal id): 48 | 32 (≈ 96.3 µM)
isolate (source animal id): 49 | 32 (≈ 96.3 µM)
isolate (source animal id): 54 | 32 (≈ 96.3 µM)
isolate (source animal id): 55 | 32 (≈ 96.3 µM)
isolate (source animal id): 58 | 32 (≈ 96.3 µM)
isolate (source animal id): 60 | 32 (≈ 96.3 µM)
isolate (source animal id): 61 | 32 (≈ 96.3 µM)
isolate (source animal id): 63 | 32 (≈ 96.3 µM)
isolate (source animal id): 64 | 32 (≈ 96.3 µM)
isolate (source animal id): 65 | 16 (≈ 48.1 µM)
isolate (source animal id): 66 | > 64
isolate (source animal id): 67 | 32 (≈ 96.3 µM)
isolate (source animal id): 69 | 32 (≈ 96.3 µM)
isolate (source animal id): 73 | 32 (≈ 96.3 µM)
isolate (source animal id): 75 | 32 (≈ 96.3 µM)
isolate (source animal id): 76 | 32 (≈ 96.3 µM)
isolate (source animal id): 77 | 16 (≈ 48.1 µM)
isolate (source animal id): 78 | 32 (≈ 96.3 µM)
isolate (source animal id): 80 | 32 (≈ 96.3 µM)
isolate (source animal id): 82 | 32 (≈ 96.3 µM)
isolate (source animal id): 83 | 32 (≈ 96.3 µM)
isolate (source animal id): 88 | > 64
isolate (source animal id): 92 | 16 (≈ 48.1 µM)
isolate (source animal id): 94 | 32 (≈ 96.3 µM)
isolate (source animal id): 318 | 32 (≈ 96.3 µM)
isolate (source animal id): 319 | 32 (≈ 96.3 µM)
isolate (source animal id): 320 | 16 (≈ 48.1 µM)
isolate (source animal id): 321 | 16 (≈ 48.1 µM)
isolate (source animal id): 322 | 16 (≈ 48.1 µM)
isolate (source animal id): 324 | 16 (≈ 48.1 µM)
isolate (source animal id): 325 | 16 (≈ 48.1 µM)
isolate (source animal id): 328 | 16 (≈ 48.1 µM)
isolate (source animal id): 330 | 16 (≈ 48.1 µM)
isolate (source animal id): 331 | 16 (≈ 48.1 µM)
isolate (source animal id): 333 | 16 (≈ 48.1 µM)
isolate (source animal id): 336 | ≤ 8
isolate (source animal id): 337 | 16 (≈ 48.1 µM)
isolate (source animal id): 339 | 16 (≈ 48.1 µM)
isolate (source animal id): 340 | 16 (≈ 48.1 µM)
isolate (source animal id): 341 | 16 (≈ 48.1 µM)

CN(C)[C@@H]1C(O)=C(C(N)=O)C(=O)[C@@]2(O)C(O)=C3C(=O)c4c(O)cccc4[C@@](C)(O)[C@H]3C[C@@H]12 [Tetracycline]
Conditions | minimum inhibitory concentration [µg/mL]
isolate (source animal id): 30 | > 8
isolate (source animal id): 34 | > 8
isolate (source animal id): 36 | > 8
isolate (source animal id): 37 | > 8
isolate (source animal id): 46 | 8 (≈ 18 µM)
isolate (source animal id): 48 | > 8
isolate (source animal id): 49 | > 8
isolate (source animal id): 54 | > 8
isolate (source animal id): 55 | > 8
isolate (source animal id): 58 | > 8
isolate (source animal id): 60 | > 8
isolate (source animal id): 61 | > 8
isolate (source animal id): 63 | > 8
isolate (source animal id): 64 | > 8
isolate (source animal id): 65 | > 8
isolate (source animal id): 66 | > 8
isolate (source animal id): 67 | > 8
isolate (source animal id): 69 | > 8
isolate (source animal id): 73 | > 8
isolate (source animal id): 75 | > 8
isolate (source animal id): 76 | > 8
isolate (source animal id): 77 | > 8
isolate (source animal id): 78 | > 8
isolate (source animal id): 80 | > 8
isolate (source animal id): 82 | > 8
isolate (source animal id): 83 | > 8
isolate (source animal id): 88 | 8 (≈ 18 µM)
isolate (source animal id): 92 | > 8
isolate (source animal id): 94 | > 8
isolate (source animal id): 318 | > 8
isolate (source animal id): 319 | > 8
isolate (source animal id): 320 | > 8
isolate (source animal id): 321 | > 8
isolate (source animal id): 322 | > 8
isolate (source animal id): 324 | > 8
isolate (source animal id): 325 | > 8
isolate (source animal id): 328 | > 8
isolate (source animal id): 330 | > 8
isolate (source animal id): 331 | 8 (≈ 18 µM)
isolate (source animal id): 333 | > 8
isolate (source animal id): 336 | > 8
isolate (source animal id): 337 | > 8
isolate (source animal id): 339 | > 8
isolate (source animal id): 340 | > 8
isolate (source animal id): 341 | > 8

C=C[C@]1(C)C[C@@H](OC(=O)CSCCN(CC)CC)[C@]2(C)[C@H](C)CC[C@]3(CCC(=O)[C@H]32)[C@@H](C)[C@@H]1O [Tiamulin]
Conditions | minimum inhibitory concentration [µg/mL]
isolate (source animal id): 30 | 16 (≈ 32.4 µM)
isolate (source animal id): 34 | 16 (≈ 32.4 µM)
isolate (source animal id): 36 | 16 (≈ 32.4 µM)
isolate (source animal id): 37 | 16 (≈ 32.4 µM)
isolate (source animal id): 46 | 16 (≈ 32.4 µM)
isolate (source animal id): 48 | 16 (≈ 32.4 µM)
isolate (source animal id): 49 | 32 (≈ 64.8 µM)
isolate (source animal id): 54 | 32 (≈ 64.8 µM)
isolate (source animal id): 55 | 32 (≈ 64.8 µM)
isolate (source animal id): 58 | 16 (≈ 32.4 µM)
isolate (source animal id): 60 | 32 (≈ 64.8 µM)
isolate (source animal id): 61 | 32 (≈ 64.8 µM)
isolate (source animal id): 63 | 32 (≈ 64.8 µM)
isolate (source animal id): 64 | 16 (≈ 32.4 µM)
isolate (source animal id): 65 | 32 (≈ 64.8 µM)
isolate (source animal id): 66 | 32 (≈ 64.8 µM)
isolate (source animal id): 67 | 32 (≈ 64.8 µM)
isolate (source animal id): 69 | 32 (≈ 64.8 µM)
isolate (source animal id): 73 | 32 (≈ 64.8 µM)
isolate (source animal id): 75 | 32 (≈ 64.8 µM)
isolate (source animal id): 76 | 32 (≈ 64.8 µM)
isolate (source animal id): 77 | 16 (≈ 32.4 µM)
isolate (source animal id): 78 | 32 (≈ 64.8 µM)
isolate (source animal id): 80 | 32 (≈ 64.8 µM)
isolate (source animal id): 82 | 32 (≈ 64.8 µM)
isolate (source animal id): 83 | 32 (≈ 64.8 µM)
isolate (source animal id): 88 | 16 (≈ 32.4 µM)
isolate (source animal id): 92 | 32 (≈ 64.8 µM)
isolate (source animal id): 94 | 32 (≈ 64.8 µM)
isolate (source animal id): 318 | 32 (≈ 64.8 µM)
isolate (source animal id): 319 | 32 (≈ 64.8 µM)
isolate (source animal id): 320 | > 32
isolate (source animal id): 321 | 32 (≈ 64.8 µM)
isolate (source animal id): 322 | 32 (≈ 64.8 µM)
isolate (source animal id): 324 | 32 (≈ 64.8 µM)
isolate (source animal id): 325 | 32 (≈ 64.8 µM)
isolate (source animal id): 328 | 32 (≈ 64.8 µM)
isolate (source animal id): 330 | 32 (≈ 64.8 µM)
isolate (source animal id): 331 | 32 (≈ 64.8 µM)
isolate (source animal id): 333 | 32 (≈ 64.8 µM)
isolate (source animal id): 336 | > 32
isolate (source animal id): 337 | 16 (≈ 32.4 µM)
isolate (source animal id): 339 | 32 (≈ 64.8 µM)
isolate (source animal id): 340 | 32 (≈ 64.8 µM)
isolate (source animal id): 341 | > 32
